Strings that start with PEPTIDE1 are HELM notation: dots part the residues, brackets hold end groups and non-standard residues.
Experiment: general procedure: Boc solid-phase peptide synthesis; azide fragment coupling; pentafluorophenyl esters; diisopropyl carbodiimide

For Glp-His-Trp-Ser-Tyr-Asp(OBzl)-IND, the step yield (coupling step) was 60%.

Glp-His-Trp-Ser-Tyr-Asp-IND showed a step yield (late stage modification step) of 83%.

With “PEPTIDE1{[Glp].H.W.S.Y.[bAsp-ANI].L.R.P.G.[am]}$$$$V2.0” the isolated yield (whole synthesis) was 12.5%.

Reference: patent publication US4600705A (Richter Gedeon Veyteszeti Gyar R.T., priority 1983, dated 1986)
